Experimental data as given in patent publication US20090305241, “DNA demethylases and uses thereof” (REGENTS OF THE UNIVERSITY OF CALIFORNIA, published 2009).

Tests used:
[1] = target: T1, DME (MBP-Δ537DME, wild-type glycosylase domain) (UniProt Q8LK56); assay: enzyme reaction in vitro; conditions: purified recombinant protein
T1 sequence: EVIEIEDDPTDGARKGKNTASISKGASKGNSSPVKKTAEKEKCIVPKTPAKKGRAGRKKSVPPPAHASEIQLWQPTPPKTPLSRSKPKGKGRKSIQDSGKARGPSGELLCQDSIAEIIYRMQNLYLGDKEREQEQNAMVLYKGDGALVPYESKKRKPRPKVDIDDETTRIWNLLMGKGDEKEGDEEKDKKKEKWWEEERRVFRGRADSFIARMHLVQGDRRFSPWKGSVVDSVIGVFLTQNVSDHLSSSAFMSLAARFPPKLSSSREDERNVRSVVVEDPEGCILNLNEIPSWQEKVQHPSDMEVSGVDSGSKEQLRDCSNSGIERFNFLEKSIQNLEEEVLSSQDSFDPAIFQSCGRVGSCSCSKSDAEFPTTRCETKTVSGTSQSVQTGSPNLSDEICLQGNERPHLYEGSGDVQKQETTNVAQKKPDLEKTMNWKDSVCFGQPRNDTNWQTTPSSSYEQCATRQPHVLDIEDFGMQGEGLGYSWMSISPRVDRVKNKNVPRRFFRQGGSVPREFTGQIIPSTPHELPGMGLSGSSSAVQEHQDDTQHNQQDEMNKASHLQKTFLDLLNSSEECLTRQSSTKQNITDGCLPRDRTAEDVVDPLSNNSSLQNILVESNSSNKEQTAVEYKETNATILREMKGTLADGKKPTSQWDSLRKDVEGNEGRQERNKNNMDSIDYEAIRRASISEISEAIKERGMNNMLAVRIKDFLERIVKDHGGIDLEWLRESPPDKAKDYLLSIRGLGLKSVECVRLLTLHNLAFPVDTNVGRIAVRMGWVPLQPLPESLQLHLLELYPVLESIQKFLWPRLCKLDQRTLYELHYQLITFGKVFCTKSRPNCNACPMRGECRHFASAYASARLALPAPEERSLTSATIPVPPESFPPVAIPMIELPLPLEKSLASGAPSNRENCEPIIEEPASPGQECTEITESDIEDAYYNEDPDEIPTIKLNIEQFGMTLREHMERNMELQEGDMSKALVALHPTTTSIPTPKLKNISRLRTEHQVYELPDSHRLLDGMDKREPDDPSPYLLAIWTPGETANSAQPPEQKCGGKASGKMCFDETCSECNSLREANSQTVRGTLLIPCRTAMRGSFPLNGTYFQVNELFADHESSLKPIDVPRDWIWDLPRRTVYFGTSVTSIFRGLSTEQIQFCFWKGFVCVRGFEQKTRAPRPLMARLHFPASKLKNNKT

[2] = target: T1, DME (MBP-Δ537DME, wild-type glycosylase domain); assay: binding assay; conditions: no covalent trapping with NaBH4; purified recombinant protein; label: 5'-32P top strand

“CTATACCTCCTCAACTCCGGTCACCGTCTCCGGCG (double strand) [fully methylated (MEA-1.6F18meC / MEA-1.6R17meC)]” was tested. Which “activity on this sequence” value ([1]; 5mC at top position 18 and bottom position 19 [top 18 = 5mC, bottom 17 (duplex position 19) = 5mC], less active than on hemimethylated, label: 5'-32P bottom strand, letters built from the parent sequence and the stated change) did it give?
Its value is “less active”.

How did the “activity on this sequence” value ([1]; 5mC in bottom strand at duplex position 19 [bottom 17 (duplex position 19) = 5mC], reference rate, label: 5'-32P bottom strand, letters built from the parent sequence and the stated change) turn out when “CTATACCTCCTCAACTCCGGTCACCGTCTCCGGCG (double strand) [hemimethylated bottom strand (MEA-1.6F / MEA-1.6R17meC)]” was run?
Its value is “active”.

“CTATACCTCCTCAACTCCGGTCACCGTCTCCGGCG (double strand) [hemimethylated meCpG (MEA-1.6F18meC / MEA-1.6R)]” was tested. Which “activity on this sequence” value ([1]; 5mC at position 18 of top strand [top 18 (5mC)], 5mC excision, beta- and delta-elimination products, 250 nM DME, 13.3 nM DNA, 0.1 mM EDTA, 37 C 1 hr, label: 5'-32P top strand, letters built from the parent sequence and the stated change, variant of unmethylated CpG (MEA-1.6F / MEA-1.6R)) did it give?
Its value is “active”.

For “CTATACCTCCTCAACTCCGGTCACCGTCTCCGGCG (double strand) [meCpNpG (MEA-1.6F17meC / MEA-1.6R)]”, which “activity on this sequence” value ([1]; 5mC at position 17 of top strand [top 17 = 5mC], CpNpG context, label: 5'-32P top strand, letters built from the parent sequence and the stated change, variant of unmethylated CpG (MEA-1.6F / MEA-1.6R)) is on record?
Its value is “active”.

With “CTATACCTCCTCAACTCCGGTCACCGTCTCCGGCG (double strand) [meCpNpN (MEA-1.6F22meC / MEA-1.6R)]” as the sequence, how does the “activity on this sequence” value ([1]; 5mC at position 22 of top strand [top 22 = 5mC], CpNpN context, label: 5'-32P top strand, letters built from the parent sequence and the stated change, variant of unmethylated CpG (MEA-1.6F / MEA-1.6R)) read?
The value was “active”.

Does “CTATACCTCCTCAACTCCGGTCACCGTCTCCGGCG (double strand) [unmethylated CpG (MEA-1.6F / MEA-1.6R)]” bind [2]?
Result: no binding

And the “activity on this sequence” value ([1]; no lyase activity, label: 5'-32P top strand)?
Its value is “not active”.

“CTATACCTCCTCAACTCTGGTCACCGTCTCCGGCG / CGCCGGAGACGGTGACCGGAGTTGAGGAGGTATAG [T/G mismatch (MEA-1.6F18T / MEA-1.6R)]” was tested. Which “activity on this sequence” value ([1]; T/G activity somewhat less than on meC/G, label: 5'-32P top strand, variant of unmethylated CpG (MEA-1.6F / MEA-1.6R)) did it give?
Its value is “less active”.

Negatives hold for the conditions tested. Tags and fusion partners may be left off the protein sequences shown. For some assays here: The comparison behind a weaker result is the experiment's own reference, which may not be listed here.
